In paper PMC7479224:
Results are given in words; binding and its absence hold for the method and conditions named. Binding seen in cells or lysates may run through a third protein. Some results given as binding are weak or reduced against the parent protein; the word gives no strength. Where a sequence is shown, tags or fusion partners need not be part of it.

Chains of the proteins cited; added tags and fusions are not shown.
UniProt P03372: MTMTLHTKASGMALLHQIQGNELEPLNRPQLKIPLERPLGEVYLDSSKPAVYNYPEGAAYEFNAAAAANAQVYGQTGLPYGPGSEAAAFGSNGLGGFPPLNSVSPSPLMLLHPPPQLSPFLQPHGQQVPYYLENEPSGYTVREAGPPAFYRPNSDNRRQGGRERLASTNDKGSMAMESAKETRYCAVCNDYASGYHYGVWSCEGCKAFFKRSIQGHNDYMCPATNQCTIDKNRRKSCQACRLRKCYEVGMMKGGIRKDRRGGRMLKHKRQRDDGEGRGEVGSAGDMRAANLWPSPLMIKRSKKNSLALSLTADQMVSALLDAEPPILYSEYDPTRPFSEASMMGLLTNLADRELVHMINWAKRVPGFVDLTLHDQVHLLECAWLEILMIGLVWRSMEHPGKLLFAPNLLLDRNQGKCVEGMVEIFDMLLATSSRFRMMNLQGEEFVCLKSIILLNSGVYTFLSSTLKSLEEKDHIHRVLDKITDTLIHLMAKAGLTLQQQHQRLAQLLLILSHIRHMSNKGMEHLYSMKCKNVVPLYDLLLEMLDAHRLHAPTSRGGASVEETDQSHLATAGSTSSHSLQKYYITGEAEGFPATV

Target: estrogen receptor α (human) (UniProt P03372)
Experiment: co-IP; in TNBC cells; immunoprecipitated with Protein G Plus/Protein A agarose beads, Western blot detection; which protein was precipitated not given

binding: binds
B1: UDP-glucuronosyltransferase UGT1A1 (enzyme, UniProt P22309-1 26-533)
chain: HAGKILLIPVDGSHWLSMLGAIQQLQQRGHEIVVLAPDASLYIRDGAFYTLKTYPVPFQREDVKESFVSLGHNVFENDSFLQRVIKTYKKIKKDSAMLLSGCSHLLHNKELMASLAESSFDVMLTDPFLPCSPIVAQYLSLPTVFFLHALPCSLEFEATQCPNPFSYVPRPLSSHSDHMTFLQRVKNMLIAFSQNFLCDVVYSPYATLASEFLQREVTVQDLLSSASVWLFRSDFVKDYPRPIMPNMVFVGGINCLHQNPLSQEFEAYINASGEHGIVVFSLGSMVSEIPEKKAMAIADALGKIPQTVLWRYTGTRPSNLANNTILVKWLPQNDLLGHPMTRAFITHAGSHGVYESICNGVPMVMMPLFGDQMDNAKRMETKGAGVTLNVLEMTSEDLENALKAVINDKSYKENIMRLSSLHKDRPVEPLDLAVFWVEFVMRHKGAPHLRPAAHDLTWYQYHSLDVIGFLLAVVLTVAFITFKCCAYGYRKCLGKKGRVKKAHKSKTH
